According to PubChem BioAssay AID2685 (National Center for Advancing Translational Sciences (NCATS), 2010):
Some of the results follow. The main result of the screen is listed elsewhere. These columns were measured beside it and carry no call. Compounds called inactive in the main read-out are mostly missing here. The note in brackets gives the kind of curve behind each potency; many fits are weak.

Assay: qHTS Assay for Lipid Storage Modulators in Drosophila S3 Cells;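 for cell number change: cells counted by Cell Tracker Red CMTPX staining in the red channel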
Settings: BODIPY lipid droplet fluorescence, 18-24 h; for cell number change: measured here: cell count max response, cells fed with added oleic acid
How it was run: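 Drosophila S3 cells loaded with oleic acid (400 uM, as added) and compounds at several concentrations; lipid droplets imaged by 488-nm laser-scanning cytometry, 500–530 nm intensity and object ratio to cell channel. Percent activity normalized to 20 uM Triacsin C.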

[1] = measured here: lipid fluorescence (Fed channel) AC50, cells fed with added oleic acid
[2] = measured here: cell number channel AC50, cells fed with added oleic acid

| Compound | cell number change [%] | AC50 [1] | AC50 [2] |
| --- | --- | --- | --- |
| COc1ccc(NC(=O)C(=O)c2cn(CC(=O)N3CCCC3)c3ccccc23)cc1 | -16.5 | 0.58 µM [falling, single point] |  |
| CCN(CC)S(=O)(=O)c1ccc(N2CCN(C)CC2)c(NC(=O)Nc2ccccc2F)c1 | 23.9 | 29.1 µM [rising, single point] |  |
| O=C(CSc1ccc(/C=N/NC(=O)c2cccc(F)c2)o1)Nc1ccccc1 |  |  | 1.84 µM [rising, partial curve, poor fit] |
| CC(C)(C)OC(=O)N1CCC(c2c(C(=O)N3CCN(C(=O)c4ccco4)CC3)cnn2-c2ccc(F)cc2F)CC1 | -13 | 29.1 µM [falling, single point] |  |
| Cc1cc(NC(=O)CCCC(=O)N(CC(=O)NC2CCCCC2)c2ccccc2)no1 | -10 |  |  |
| CC1(C)O[C@@H]2[C@H](O1)[C@@H](CO)O[C@H]2n1c(N2CCCCC2)nc2c(N)ncnc21 | -5.17 |  |  |
| O=S(=O)(c1cc(F)ccc1F)N1CCN(c2ncccn2)CC1 | 9.9 | 20.6 µM [rising, single point] | 1.46 µM [rising, full curve, poor fit] |
| COc1ccc(Cl)cc1NS(=O)(=O)c1cccc(C(=O)N2CC(C)OC(C)C2)c1 (stereo not given) | -6.69 | 25.9 µM [falling, single point] |  |
| COc1cc(/C=C2/C(=N)N3OC(C)=CC3=NC2=O)ccc1OCCOc1ccc(C)cc1 | 8.91 | 6.51 µM [rising, full curve, poor fit] |  |
| COc1ccc(CC(=O)NNc2ncnc3c2cnn3-c2ccccc2)cc1 | -29.8 | 2.91 µM [rising, partial curve, poor fit] |  |
| CCc1ccc(-c2csc(NC(=O)C3=NN(c4ccccc4)C(=O)CC3)n2)cc1 | -1.61 | 0.92 µM [rising, full curve] | 0.651 µM [rising, partial curve, poor fit] |
| CSc1ccc(C(=O)NC2CCSc3ccccc32)cc1 (stereo not given) | 2.38 | 6.51 µM [rising, single point] |  |
| COc1ccccc1N(CC(=O)NCCSCc1ccco1)S(=O)(=O)c1ccccc1 | -13.2 |  |  |
| Cc1cc(C)nc(SCc2nnc(SCC(=O)Nc3nc(-c4ccccc4)cs3)n2-c2ccccc2)n1 | 55.8 | 6.51 µM [rising, partial curve] | 29.1 µM [rising, single point] |
| Cn1c(=O)c2ncn(CC(=O)Nc3ccc4c5c(cccc35)CC4)c2n(C)c1=O |  | 0.116 µM [rising, full curve, poor fit] |  |
| COC(=O)c1ccc(Cn2nnc3c(=O)[nH]c(C4CCCN(S(=O)(=O)c5ccccc5Cl)C4)nc32)cc1 (stereo not given) | -8.26 | 0.58 µM [rising, single point] |  |
| Cc1ccc(/C=c2\sc3nc(-c4cccs4)nn3c2=O)o1 | -21 | 0.651 µM [falling, full curve, poor fit] | 0.13 µM [falling, full curve, poor fit] |
| Cc1cc(C)c2c(-n3cccc3)c(C(=O)NNS(=O)(=O)c3ccccc3)sc2n1 | 7.18 |  | 0.231 µM [rising, full curve, poor fit] |
| Cc1ccc2nc(SC(C)C(=O)NCc3ccco3)[nH]c2c1 (stereo not given) |  | 29.1 µM [falling, single point] |  |
| CCCC1CCC(=NNC(=S)NCCc2ccccc2)CC1 (stereo not given) | 31.2 |  | 16.4 µM [rising, single point] |
| CCOc1ccc(NC(=O)Nc2ccc(N(C)C(C)=O)cc2)cc1 | 3.9 | 0.00461 µM [falling, full curve, poor fit] | 0.146 µM [falling, full curve, poor fit] |
| O=C(NCCSc1ccccc1)c1ccc(CN2CCOCC2)cc1 | -8.69 | 3.26 µM [falling, single point] |  |
| COC(=O)C1CCN(CCCOc2ccc(CN3CCN(c4ccc([N+](=O)[O-])cc4)CC3)cc2)CC1 | -17.1 | 0.00517 µM [falling, full curve, poor fit] |  |
| COc1cc(NS(=O)(=O)c2cn(C)cn2)cc(OC)c1 | -13.3 | 0.146 µM [rising, full curve, poor fit] |  |
| Cc1ccc(CNC(=O)CCS(=O)(=O)c2ccc3nc(C)sc3c2)cc1 | 6.63 |  |  |
| O=C(CCn1c(=O)oc2ccccc21)N1CCOCC1 | -10.3 | 0.00411 µM [rising, full curve, poor fit] |  |
| CCN(CC(=O)NC1CCCCCC1)S(=O)(=O)c1ccccc1 |  | 2.31 µM [rising, partial curve] | 2.91 µM [rising, single point] |
| Cc1cccc(NC(=S)NN2CCN(C)CC2)c1 | -3.38 | 5.17 µM [falling, single point] |  |
| COc1ccc(-n2nc([N+](=O)[O-])c(=NCCc3ccc(OC)c(OC)c3)n2O)cc1 |  | 0.82 µM [falling, full curve, poor fit] |  |

Structures from the list above with a thiophene ring, fused or not (2):

| Compound | cell number change [%] | AC50 [1] | AC50 [2] |
| --- | --- | --- | --- |
| Cc1ccc(/C=c2\sc3nc(-c4cccs4)nn3c2=O)o1 | -21 | 0.651 µM [falling, full curve, poor fit] | 0.13 µM [falling, full curve, poor fit] |
| Cc1cc(C)c2c(-n3cccc3)c(C(=O)NNS(=O)(=O)c3ccccc3)sc2n1 | 7.18 |  | 0.231 µM [rising, full curve, poor fit] |
